Data published in publication PMC10104862.
No constants are given. Whether binding was seen depends on the method and setting. Binding seen in cells or lysates may run through a third protein. Some results given as binding are weak or reduced against the parent protein; the word gives no strength. Tags and fused reporters may be left off the sequences shown.

Chains of the proteins cited; added tags and fusions are not shown.
UniProt Q15554: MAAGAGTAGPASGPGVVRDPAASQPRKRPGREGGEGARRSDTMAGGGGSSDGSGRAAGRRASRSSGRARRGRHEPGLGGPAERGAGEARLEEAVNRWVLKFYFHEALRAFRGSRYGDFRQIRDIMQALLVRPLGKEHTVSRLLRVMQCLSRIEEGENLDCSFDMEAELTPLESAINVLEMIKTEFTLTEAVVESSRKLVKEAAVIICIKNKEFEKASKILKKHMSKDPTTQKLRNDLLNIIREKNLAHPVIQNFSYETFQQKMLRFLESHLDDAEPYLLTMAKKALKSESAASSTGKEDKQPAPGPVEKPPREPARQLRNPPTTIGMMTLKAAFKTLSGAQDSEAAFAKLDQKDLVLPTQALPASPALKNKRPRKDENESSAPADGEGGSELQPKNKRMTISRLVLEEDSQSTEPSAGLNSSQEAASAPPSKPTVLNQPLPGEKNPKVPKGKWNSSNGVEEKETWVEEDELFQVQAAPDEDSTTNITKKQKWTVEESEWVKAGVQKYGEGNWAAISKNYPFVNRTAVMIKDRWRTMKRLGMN

Biological target: Flag-TRF2 (Telomeric repeat-binding factor 2), wild type (not stated (human or mouse cDNA cloned)) (UniProt Q15554)
Assay: co-IP; 293T or U2OS cells co-transfected with epitope-tagged cDNAs, lysed 48 h later in BCO 300 buffer (20 mM HEPES pH 7.5, 10% glycerol, 1 mM EDTA, 0.1% NP-40); Flag M2 affinity gel; SDS-PAGE and blot

B1: HA-DDX21, wild type (protein, UniProt Q9NR30 1-783)
chain: MPGKLRSDAGLESDTAMKKGETLRKQTEEKEKKEKPKSDKTEEIAEEEETVFPKAKQVKKKAEPSEVDMNSPKSKKAKKKEEPSQNDISPKTKSLRKKKEPIEKKVVSSKTKKVTKNEEPSEEEIDAPKPKKMKKEKEMNGETREKSPKLKNGFPHPEPDCNPSEAASEESNSEIEQEIPVEQKEGAFSNFPISEETIKLLKGRGVTFLFPIQAKTFHHVYSGKDLIAQARTGTGKTFSFAIPLIEKLHGELQDRKRGRAPQVLVLAPTRELANQVSKDFSDITKKLSVACFYGGTPYGGQFERMRNGIDILVGTPGRIKDHIQNGKLDLTKLKHVVLDEVDQMLDMGFADQVEEILSVAYKKDSEDNPQTLLFSATCPHWVFNVAKKYMKSTYEQVDLIGKKTQKTAITVEHLAIKCHWTQRAAVIGDVIRVYSGHQGRTIIFCETKKEAQELSQNSAIKQDAQSLHGDIPQKQREITLKGFRNGSFGVLVATNVAARGLDIPEVDLVIQSSPPKDVESYIHRSGRTGRAGRTGVCICFYQHKEEYQLVQVEQKAGIKFKRIGVPSATEIIKASSKDAIRLLDSVPPTAISHFKQSAEKLIEEKGAVEALAAALAHISGATSVDQRSLINSNVGFVTMILQCSIEMPNISYAWKELKEQLGEEIDSKVKGMVFLKGKLGVCFDVPTASVTEIQEKWHDSRRWQLSVATEQPELEGPREGYGGFRGQREGSRGFRGQRDGNRRFRGQREGSRGPRGQRSGGGNKSNRSQNKGQKRSFSKAFGQ
B1 was tested. Which binding did it give?
The binding was “binds”.
